Results are given in words; binding and its absence hold for the method and conditions named. In cells and extracts the contact can be indirect. Some binding calls cover weakened binding; strength is not graded here.
T1: CTC1-STN1-TEN1 (CST)/alpha accessory factor (AAF) (human (endogenous in Huh 7)), Q2NKJ3
T1 chain 1: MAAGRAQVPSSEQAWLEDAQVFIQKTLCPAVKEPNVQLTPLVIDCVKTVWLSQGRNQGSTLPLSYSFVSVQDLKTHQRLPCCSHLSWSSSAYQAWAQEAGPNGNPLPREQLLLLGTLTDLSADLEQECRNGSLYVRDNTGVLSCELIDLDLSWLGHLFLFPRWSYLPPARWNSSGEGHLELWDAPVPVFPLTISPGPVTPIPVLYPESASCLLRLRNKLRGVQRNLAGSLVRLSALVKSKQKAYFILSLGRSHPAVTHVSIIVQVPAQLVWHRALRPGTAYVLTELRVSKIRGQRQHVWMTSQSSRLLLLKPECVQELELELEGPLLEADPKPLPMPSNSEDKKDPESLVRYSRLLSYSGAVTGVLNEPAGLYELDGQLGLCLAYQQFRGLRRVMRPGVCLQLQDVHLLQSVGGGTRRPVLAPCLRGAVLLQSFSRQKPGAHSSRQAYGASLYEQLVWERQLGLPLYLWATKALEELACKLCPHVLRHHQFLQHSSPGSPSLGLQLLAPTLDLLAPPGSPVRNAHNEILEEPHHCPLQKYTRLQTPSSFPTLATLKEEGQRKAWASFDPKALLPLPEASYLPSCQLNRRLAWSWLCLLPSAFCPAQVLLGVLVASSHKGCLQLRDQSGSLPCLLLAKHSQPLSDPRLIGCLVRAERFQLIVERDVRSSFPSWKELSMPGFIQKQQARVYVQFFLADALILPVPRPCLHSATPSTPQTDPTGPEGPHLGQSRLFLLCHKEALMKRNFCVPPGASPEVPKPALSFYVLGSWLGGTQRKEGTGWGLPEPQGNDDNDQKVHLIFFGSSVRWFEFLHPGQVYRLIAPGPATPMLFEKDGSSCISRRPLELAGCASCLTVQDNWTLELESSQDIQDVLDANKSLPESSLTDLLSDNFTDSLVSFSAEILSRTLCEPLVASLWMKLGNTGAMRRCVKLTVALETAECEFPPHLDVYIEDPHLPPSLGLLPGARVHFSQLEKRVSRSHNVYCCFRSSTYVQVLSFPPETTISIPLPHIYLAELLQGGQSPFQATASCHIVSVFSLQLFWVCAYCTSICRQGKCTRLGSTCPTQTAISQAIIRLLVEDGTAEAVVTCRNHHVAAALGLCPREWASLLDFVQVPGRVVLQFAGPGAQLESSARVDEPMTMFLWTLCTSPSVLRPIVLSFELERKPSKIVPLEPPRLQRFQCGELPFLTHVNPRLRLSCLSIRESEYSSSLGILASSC
T1 chain 2: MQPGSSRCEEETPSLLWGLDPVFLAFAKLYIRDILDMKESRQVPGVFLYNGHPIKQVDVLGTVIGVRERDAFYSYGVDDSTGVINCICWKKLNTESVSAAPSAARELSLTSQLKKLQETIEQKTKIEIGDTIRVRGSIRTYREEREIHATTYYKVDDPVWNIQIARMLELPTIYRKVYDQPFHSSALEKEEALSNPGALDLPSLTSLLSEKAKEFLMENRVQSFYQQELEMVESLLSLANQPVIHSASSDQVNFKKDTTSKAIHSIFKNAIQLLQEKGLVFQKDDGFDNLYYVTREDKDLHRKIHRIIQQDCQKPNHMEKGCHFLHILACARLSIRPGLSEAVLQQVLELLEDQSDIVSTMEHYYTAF
T1 chain 3: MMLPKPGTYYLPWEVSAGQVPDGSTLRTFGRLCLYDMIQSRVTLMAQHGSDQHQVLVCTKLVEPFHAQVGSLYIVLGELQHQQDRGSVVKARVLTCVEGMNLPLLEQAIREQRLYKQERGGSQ

Protein sequences, listed by entry. Tags and fused reporters are not part of them.
UniProt O14746: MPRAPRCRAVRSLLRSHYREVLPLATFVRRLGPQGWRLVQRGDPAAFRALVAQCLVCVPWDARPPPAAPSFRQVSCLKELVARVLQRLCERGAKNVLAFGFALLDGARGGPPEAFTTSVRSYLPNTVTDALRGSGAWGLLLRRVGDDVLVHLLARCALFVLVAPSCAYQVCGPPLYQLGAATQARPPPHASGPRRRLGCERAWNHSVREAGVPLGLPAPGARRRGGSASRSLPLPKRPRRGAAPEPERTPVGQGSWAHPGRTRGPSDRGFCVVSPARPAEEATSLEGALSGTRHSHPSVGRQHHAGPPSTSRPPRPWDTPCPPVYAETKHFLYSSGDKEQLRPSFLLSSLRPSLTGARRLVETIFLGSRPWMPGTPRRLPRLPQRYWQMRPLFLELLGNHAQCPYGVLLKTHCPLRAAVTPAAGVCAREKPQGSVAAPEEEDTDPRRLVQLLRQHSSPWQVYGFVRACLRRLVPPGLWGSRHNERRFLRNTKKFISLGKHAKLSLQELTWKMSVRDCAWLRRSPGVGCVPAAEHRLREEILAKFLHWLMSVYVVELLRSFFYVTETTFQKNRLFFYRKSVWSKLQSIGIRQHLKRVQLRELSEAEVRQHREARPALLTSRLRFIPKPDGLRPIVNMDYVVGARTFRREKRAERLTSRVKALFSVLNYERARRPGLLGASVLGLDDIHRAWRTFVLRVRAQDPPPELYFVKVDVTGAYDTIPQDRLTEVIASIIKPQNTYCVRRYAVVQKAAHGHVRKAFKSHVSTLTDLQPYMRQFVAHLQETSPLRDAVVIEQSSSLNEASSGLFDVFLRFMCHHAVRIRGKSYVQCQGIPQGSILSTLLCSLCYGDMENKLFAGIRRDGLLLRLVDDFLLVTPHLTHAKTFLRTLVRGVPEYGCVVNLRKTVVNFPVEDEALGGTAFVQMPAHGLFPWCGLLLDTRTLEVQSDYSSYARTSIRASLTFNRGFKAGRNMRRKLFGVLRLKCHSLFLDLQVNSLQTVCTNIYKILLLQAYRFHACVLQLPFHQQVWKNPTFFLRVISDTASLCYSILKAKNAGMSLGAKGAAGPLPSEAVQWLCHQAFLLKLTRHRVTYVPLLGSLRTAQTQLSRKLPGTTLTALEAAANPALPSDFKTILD
UniProt Q15554: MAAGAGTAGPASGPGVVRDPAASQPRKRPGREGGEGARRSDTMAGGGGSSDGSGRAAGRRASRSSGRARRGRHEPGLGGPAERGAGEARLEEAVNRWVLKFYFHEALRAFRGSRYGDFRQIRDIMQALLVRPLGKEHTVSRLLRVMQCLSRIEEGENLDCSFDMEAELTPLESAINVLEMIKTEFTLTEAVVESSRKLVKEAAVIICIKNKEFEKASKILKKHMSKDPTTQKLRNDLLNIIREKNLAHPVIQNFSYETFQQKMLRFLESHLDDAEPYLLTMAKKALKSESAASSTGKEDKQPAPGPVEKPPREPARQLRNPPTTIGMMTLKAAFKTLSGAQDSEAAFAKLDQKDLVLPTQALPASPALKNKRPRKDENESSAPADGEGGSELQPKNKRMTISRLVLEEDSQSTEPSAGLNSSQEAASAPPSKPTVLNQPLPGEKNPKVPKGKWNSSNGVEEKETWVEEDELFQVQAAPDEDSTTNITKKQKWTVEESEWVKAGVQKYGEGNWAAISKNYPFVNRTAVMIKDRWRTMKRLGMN
UniProt Q9BUR4: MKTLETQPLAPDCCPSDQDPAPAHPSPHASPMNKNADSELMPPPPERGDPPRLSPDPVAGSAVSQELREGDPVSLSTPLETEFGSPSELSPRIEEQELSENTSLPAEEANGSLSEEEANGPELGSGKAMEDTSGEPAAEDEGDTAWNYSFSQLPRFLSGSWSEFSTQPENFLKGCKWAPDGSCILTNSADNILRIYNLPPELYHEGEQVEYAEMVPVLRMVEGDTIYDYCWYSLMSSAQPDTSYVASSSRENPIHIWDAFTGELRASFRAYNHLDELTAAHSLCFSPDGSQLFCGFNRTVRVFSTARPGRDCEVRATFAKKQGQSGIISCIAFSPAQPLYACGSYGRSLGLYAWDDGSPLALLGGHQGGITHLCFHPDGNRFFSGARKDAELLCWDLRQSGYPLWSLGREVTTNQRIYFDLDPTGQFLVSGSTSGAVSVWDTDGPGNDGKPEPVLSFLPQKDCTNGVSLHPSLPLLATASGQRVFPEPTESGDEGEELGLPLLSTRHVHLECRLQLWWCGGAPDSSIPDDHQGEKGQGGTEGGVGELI
UniProt Q9Y265: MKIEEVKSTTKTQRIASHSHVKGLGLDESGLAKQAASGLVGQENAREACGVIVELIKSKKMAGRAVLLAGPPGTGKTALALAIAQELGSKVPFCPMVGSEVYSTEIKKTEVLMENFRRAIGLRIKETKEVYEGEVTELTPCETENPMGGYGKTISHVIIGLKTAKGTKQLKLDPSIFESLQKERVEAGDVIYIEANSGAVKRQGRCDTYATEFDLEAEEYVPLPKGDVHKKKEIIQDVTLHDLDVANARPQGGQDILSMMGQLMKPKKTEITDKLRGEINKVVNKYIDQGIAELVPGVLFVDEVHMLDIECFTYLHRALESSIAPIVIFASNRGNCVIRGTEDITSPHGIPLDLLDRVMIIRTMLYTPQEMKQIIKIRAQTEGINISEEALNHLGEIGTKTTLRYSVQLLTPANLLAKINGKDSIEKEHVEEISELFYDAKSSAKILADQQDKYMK


What was measured:
Test in all cases: co-IP; Huh 7 cells infected with rLV, rLV-CALR or rLV-CALR + rLV-shRNA-ARAF; IgG Co-IP as negative control
[1] = biological target: telomerase reverse transcriptase (human (endogenous in Huh 7)) (UniProt O14746)
[2] = biological target: telomeric repeat binding factor 2 (human (endogenous in Huh 7)) (UniProt Q15554)
[3] = biological target: T1, CTC1-STN1-TEN1 (CST)/alpha accessory …; conditions: remark: other sources report otherwise

Molecule	binding [1]	binding [2]	also measured
telomerase Cajal body protein 1 (from UniProt Q9BUR4 1-548)	binds		
Pontin (from UniProt Q9Y265 1-456)	binds		
sensitivity to nitrogen mustard 1 (SNM1B) (protein, UniProt Q9H816 1-532) MNGVLIPHTPIAVDFWSLRRAGTARLFFLSHMHSDHTVGLSSTWARPLYCSPITAHLLHRHLQVSKQWIQALEVGESHVLPLDEIGQETMTVTLLDANHCPGSVMFLFEGYFGTILYTGDFRYTPSMLKEPALTLGKQIHTLYLDNTNCNPALVLPSRQEAAHQIVQLIRKHPQHNIKIGLYSLGKESLLEQLALEFQTWVVLSPRRLELVQLLGLADVFTVEEKAGRIHAVDHMEICHSNMLRWNQTHPTIAILPTSRKIHSSHPDIHVIPYSDHSSYSELRAFVAALKPCQVVPIVSRRPCGGFQDSLSPRISVPLIPDSVQQYMSSSSRKPSLLWLLERRLKRPRTQGVVFESPEESADQSQADRDSKKAKKEKLSPWPADLEKQPSHHPLRIKKQLFPDLYSKEWNKAVPFCESQKRVTMLTAPLGFSVHLRSTDEEFISQKTREEIGLGSPLVPMGDDDGGPEATGNQSAWMGHGSPLSHSSKGTPLLATEFRGLALKYLLTPVNFFQAGYSSRRFDQQVEKYHKPC		binds	
regulator of telomere elongation helicase (protein, UniProt Q9NZ71 1-1219) MPKIVLNGVTVDFPFQPYKCQQEYMTKVLECLQQKVNGILESPTGTGKTLCLLCTTLAWREHLRDGISARKIAERAQGELFPDRALSSWGNAAAAAGDPIACYTDIPKIIYASRTHSQLTQVINELRNTSYRPKVCVLGSREQLCIHPEVKKQESNHLQIHLCRKKVASRSCHFYNNVEEKSLEQELASPILDIEDLVKSGSKHRVCPYYLSRNLKQQADIIFMPYNYLLDAKSRRAHNIDLKGTVVIFDEAHNVEKMCEESASFDLTPHDLASGLDVIDQVLEEQTKAAQQGEPHPEFSADSPSPGLNMELEDIAKLKMILLRLEGAIDAVELPGDDSGVTKPGSYIFELFAEAQITFQTKGCILDSLDQIIQHLAGRAGVFTNTAGLQKLADIIQIVFSVDPSEGSPGSPAGLGALQSYKVHIHPDAGHRRTAQRSDAWSTTAARKRGKVLSYWCFSPGHSMHELVRQGVRSLILTSGTLAPVSSFALEMQIPFPVCLENPHIIDKHQIWVGVVPRGPDGAQLSSAFDRRFSEECLSSLGKALGNIARVVPYGLLIFFPSYPVMEKSLEFWRARDLARKMEALKPLFVEPRSKGSFSETISAYYARVAAPGSTGATFLAVCRGKASEGLDFSDTNGRGVIVTGLPYPPRMDPRVVLKMQFLDEMKGQGGAGGQFLSGQEWYRQQASRAVNQAIGRVIRHRQDYGAVFLCDHRFAFADARAQLPSWVRPHVRVYDNFGHVIRDVAQFFRVAERTMPAPAPRATAPSVRGEDAVSEAKSPGPFFSTRKAKSLDLHVPSLKQRSSGSPAAGDPESSLCVEYEQEPVPARQRPRGLLAALEHSEQRAGSPGEEQAHSCSTLSLLSEKRPAEEPRGGRKKIRLVSHPEEPVAGAQTDRAKLFMVAVKQELSQANFATFTQALQDYKGSDDFAALAACLGPLFAEDPKKHNLLQGFYQFVRPHHKQQFEEVCIQLTGRGCGYRPEHSIPRRQRAQPVLDPTGRTAPDPKLTVSTAAAQQLDPQEHLNQGRPHLSPRPPPTGDPGSQPQWGSGVPRAGKQGQHAVSAYLADARRALGSAGCSQLLAALTAYKQDDDLDKVLAVLAALTTAKPEDFPLLHRFSMFVRPHHKQRFSQTCTDLTGRPYPGMEPPGPQEERLAVPPVLTHRAPQPGPSRSEKTGKTQSKISSFLRQRPAGTVGAGGEDAGPSQSSGPPHGPAASEWGL		binds	
TERF1 interacting nuclear factor 2 (protein, UniProt Q9BSI4 1-451) MATPLVAGPAALRFAAAASWQVVRGRCVEHFPRVLEFLRSLRAVAPGLVRYRHHERLCMGLKAKVVVELILQGRPWAQVLKALNHHFPESGPIVRDPKATKQDLRKILEAQETFYQQVKQLSEAPVDLASKLQELEQEYGEPFLAAMEKLLFEYLCQLEKALPTPQAQQLQDVLSWMQPGVSITSSLAWRQYGVDMGWLLPECSVTDSVNLAEPMEQNPPQQQRLALHNPLPKAKPGTHLPQGPSSRTHPEPLAGRHFNLAPLGRRRVQSQWASTRGGHKERPTVMLFPFRNLGSPTQVISKPESKEEHAIYTADLAMGTRAASTGKSKSPCQTLGGRALKENPVDLPATEQKENCLDCYMDPLRLSLLPPRARKPVCPPSLCSSVITIGDLVLDSDEEENGQGEGKESLENYQKTKFDTLIPTLCEYLPPSGHGAIPVSSCDCRDSSRPL		binds	
centromere/microtubule binding protein 5 (protein, UniProt O60832 1-514) MADAEVIILPKKHKKKKERKSLPEEDVAEIQHAEEFLIKPESKVAKLDTSQWPLLLKNFDKLNVRTTHYTPLACGSNPLKREIGDYIRTGFINLDKPSNPSSHEVVAWIRRILRVEKTGHSGTLDPKVTGCLIVCIERATRLVKSQQSAGKEYVGIVRLHNAIEGGTQLSRALETLTGALFQRPPLIAAVKRQLRVRTIYESKMIEYDPERRLGIFWVSCEAGTYIRTLCVHLGLLLGVGGQMQELRRVRSGVMSEKDHMVTMHDVLDAQWLYDNHKDESYLRRVVYPLEKLLTSHKRLVMKDSAVNAICYGAKIMLPGVLRYEDGIEVNQEIVVITTKGEAICMAIALMTTAVISTCDHGIVAKIKRVIMERDTYPRKWGLGPKASQKKLMIKQGLLDKHGKPTDSTPATWKQEYVDYSESAKKEVVAEVVKAPQVVAEAAKTAKRKRESESESDETPPAAPQLIKKEKKKSKKDKKAKAGLESGAEPGDGDSDTTKKKKKKKKAKEVELVSE	binds		
protection of telomeres 1, Q9NUX5 1-634 (protein) MSLVPATNYIYTPLNQLKGGTIVNVYGVVKFFKPPYLSKGTDYCSVVTIVDQTNVKLTCLLFSGNYEALPIIYKNGDIVRFHRLKIQVYKKETQGITSSGFASLTFEGTLGAPIIPRTSSKYFNFTTEDHKMVEALRVWASTHMSPSWTLLKLCDVQPMQYFDLTCQLLGKAEVDGASFLLKVWDGTRTPFPSWRVLIQDLVLEGDLSHIHRLQNLTIDILVYDNHVHVARSLKVGSFLRIYSLHTKLQSMNSENQTMLSLEFHLHGGTSYGRGIRVLPESNSDVDQLKKDLESANLTANQHSDVICQSEPDDSFPSSGSVSLYEVERCQQLSATILTDHQYLERTPLCAILKQKAPQQYRIRAKLRSYKPRRLFQSVKLHCPKCHLLQEVPHEGDLDIIFQDGATKTPDVKLQNTSLYDSKIWTTKNQKGRKVAVHFVKNNGILPLSNECLLLIEGGTLSEICKLSNKFNSVIPVRSGHEDLELLDLSAPFLIQGTIHHYGCKQCSSLRSIQNLNSLVDKTSWIPSSVAEALGIVPLQYVFVMTFTLDDGTGVLEAYLMDSDKFFQIPASEVLMDDDLQKSVDMIMDMFCPPGIKIDAYPWLECFIKSYNVTNGTDNQICYQIFDTTVAEDVI			binding [3]: binds

— article PMC12624556
